Source: patent US20040091907A1
Results are given in words; binding and its absence hold for the method and conditions named. Binding seen in cells or lysates may run through a third protein. Some binding calls cover weakened binding; strength is not graded here. Sequences can lack the tags named with a protein.

Sequences of proteins named here, by UniProt entry; tags and fusion partners are left off. A change or cut given only in a name is not applied to a line headed by its entry. A line that says so, or that is headed by a name, gives the form on record, which may keep a tag or linker. Residues count along the entry.
UniProt O96013: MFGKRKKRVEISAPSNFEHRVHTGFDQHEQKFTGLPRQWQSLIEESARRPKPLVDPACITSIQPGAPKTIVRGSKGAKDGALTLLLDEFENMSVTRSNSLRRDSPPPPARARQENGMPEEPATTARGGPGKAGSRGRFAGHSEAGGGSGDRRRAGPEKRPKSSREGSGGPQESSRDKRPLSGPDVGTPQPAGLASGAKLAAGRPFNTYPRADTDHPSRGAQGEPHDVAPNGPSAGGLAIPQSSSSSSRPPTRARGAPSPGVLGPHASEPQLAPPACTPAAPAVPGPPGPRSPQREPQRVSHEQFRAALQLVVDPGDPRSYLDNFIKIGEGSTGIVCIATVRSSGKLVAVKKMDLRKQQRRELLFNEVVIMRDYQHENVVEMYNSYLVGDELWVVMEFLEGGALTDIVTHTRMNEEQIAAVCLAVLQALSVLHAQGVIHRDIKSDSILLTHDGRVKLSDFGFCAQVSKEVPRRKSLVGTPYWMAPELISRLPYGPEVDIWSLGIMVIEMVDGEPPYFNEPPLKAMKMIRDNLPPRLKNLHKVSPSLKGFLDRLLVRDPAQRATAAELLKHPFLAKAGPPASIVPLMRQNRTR
myc-tagged PAK4 kinase domain (amino acids 291-591): residues 291-591 of O96013

Columns and labels:
[1] = target: full-length myc-tagged PAK4 protein (human) (UniProt O96013); experiment: GST pull-down on glutathione beads from 293T lysates, myc immunoblot
[2] = target: myc-tagged PAK4 kinase domain (amino acids 291-591) (human) (UniProt O96013); experiment: as above
[3] = target: full-length myc-tagged PAK4 protein (human) (UniProt O96013); experiment: GST pull-down from 293T cell extracts, Western blot with anti-myc

Measured: binding

B1: GST-GEF-H1S (aa763-921) (protein, not shown: a dimerising Fc or GST)
chain: LRESEQARALLEREAEEARRQLAALGQTEPLPAEAPWARRPVDPRRRSLPAGDALYLSFNPPQPSRGTDRLDLPVTTRSVHRNFEDRERQELGSPEERLQDSSDPDTGSEEEGSSRLSPPHSPRGETLAETWTRDFTRMQDIPEETESRDGEAVASES
binds: all assays above
